In paper doi:10.1101/2021.01.25.428077:
These are yes or no findings as the source states them, for the method shown. Binding can be weak; no strength is given. Tags and fused reporters may be left off the sequences shown. For some of these results: In cells and extracts the contact can be indirect.

T1: ACD6-cLuc (… CELL DEATH 6 from Col-0, full length) (Arabidopsis thaliana) (UniProt Q8LPS2)
T1 sequence: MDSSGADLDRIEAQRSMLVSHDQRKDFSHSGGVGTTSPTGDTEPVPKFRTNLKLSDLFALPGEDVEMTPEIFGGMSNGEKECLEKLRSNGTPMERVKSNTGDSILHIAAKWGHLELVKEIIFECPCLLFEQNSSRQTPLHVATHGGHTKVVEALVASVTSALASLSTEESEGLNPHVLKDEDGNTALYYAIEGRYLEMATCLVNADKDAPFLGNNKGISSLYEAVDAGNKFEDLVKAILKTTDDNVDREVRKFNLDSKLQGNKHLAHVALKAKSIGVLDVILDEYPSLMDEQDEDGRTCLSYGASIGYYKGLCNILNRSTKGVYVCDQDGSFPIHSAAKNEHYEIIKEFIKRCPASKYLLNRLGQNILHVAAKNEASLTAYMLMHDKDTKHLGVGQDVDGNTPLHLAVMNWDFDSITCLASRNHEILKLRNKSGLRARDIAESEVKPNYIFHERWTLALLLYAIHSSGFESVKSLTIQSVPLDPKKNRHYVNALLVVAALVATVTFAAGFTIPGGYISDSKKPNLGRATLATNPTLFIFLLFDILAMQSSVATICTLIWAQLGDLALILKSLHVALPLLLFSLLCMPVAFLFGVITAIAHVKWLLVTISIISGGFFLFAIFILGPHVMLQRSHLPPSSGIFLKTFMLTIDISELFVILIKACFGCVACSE


Experiments:
[1] = target: T1, ACD6-cLuc (… CELL DEATH 6 from Col-0, full length) (Arabidopsis thaliana); assay: split reporter
[2] = target: GFP-MHA1L (Arabidopsis thaliana); assay: native gel or EMSA
[3] = target: GFP-MHA1L (Arabidopsis thaliana); assay: co-IP
[4] = target: GFP-MHA1L (Arabidopsis thaliana); assay: co-IP; remark: listed apart in the source

binding [2]	binding [3]	binding [4]	Molecule	binding [1]
–	–	–	MHA1L-nLuc (MHA1-LIKE) (Arabidopsis thaliana)	binds
binds	binds	binds	ACD6-FLAG (ACD6-Col-0-3xFLAG) (protein, UniProt Q8LPS2 1-670) MDSSGADLDRIEAQRSMLVSHDQRKDFSHSGGVGTTSPTGDTEPVPKFRTNLKLSDLFALPGEDVEMTPEIFGGMSNGEKECLEKLRSNGTPMERVKSNTGDSILHIAAKWGHLELVKEIIFECPCLLFEQNSSRQTPLHVATHGGHTKVVEALVASVTSALASLSTEESEGLNPHVLKDEDGNTALYYAIEGRYLEMATCLVNADKDAPFLGNNKGISSLYEAVDAGNKFEDLVKAILKTTDDNVDREVRKFNLDSKLQGNKHLAHVALKAKSIGVLDVILDEYPSLMDEQDEDGRTCLSYGASIGYYKGLCNILNRSTKGVYVCDQDGSFPIHSAAKNEHYEIIKEFIKRCPASKYLLNRLGQNILHVAAKNEASLTAYMLMHDKDTKHLGVGQDVDGNTPLHLAVMNWDFDSITCLASRNHEILKLRNKSGLRARDIAESEVKPNYIFHERWTLALLLYAIHSSGFESVKSLTIQSVPLDPKKNRHYVNALLVVAALVATVTFAAGFTIPGGYISDSKKPNLGRATLATNPTLFIFLLFDILAMQSSVATICTLIWAQLGDLALILKSLHVALPLLLFSLLCMPVAFLFGVITAIAHVKWLLVTISIISGGFFLFAIFILGPHVMLQRSHLPPSSGIFLKTFMLTIDISELFVILIKACFGCVACSE	–
